Test [1] deals with T1, full length TRIM14 ORF tagged at the C-terminus with 3xFLAG (human) (UniProt Q14142).
T1 sequence: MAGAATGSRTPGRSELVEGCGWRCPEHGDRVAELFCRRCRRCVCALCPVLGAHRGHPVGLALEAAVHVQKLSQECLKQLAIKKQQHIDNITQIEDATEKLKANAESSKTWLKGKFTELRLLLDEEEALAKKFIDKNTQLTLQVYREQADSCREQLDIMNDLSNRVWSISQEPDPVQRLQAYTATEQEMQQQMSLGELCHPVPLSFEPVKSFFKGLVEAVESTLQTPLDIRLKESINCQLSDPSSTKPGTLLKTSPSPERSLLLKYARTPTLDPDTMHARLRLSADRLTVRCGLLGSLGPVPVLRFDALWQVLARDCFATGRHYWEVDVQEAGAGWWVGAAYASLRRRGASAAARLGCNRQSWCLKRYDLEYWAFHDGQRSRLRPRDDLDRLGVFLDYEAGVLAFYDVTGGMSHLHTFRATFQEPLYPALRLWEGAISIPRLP
In words: co-IP; HEK293T whole-cell extracts, FLAG-TRIM14 immunoprecipitated with anti-FLAG antibody, endogenous partners detected by blot; empty FLAG vector as control.

Chains of the proteins cited; added tags and fusions are not shown. Lines headed by an entry give the natural chain unless they say otherwise; changes in a name come on top. A line that says so, or that is headed by a name, gives the form on record, which may keep a tag or linker.
Isoform 2 of HCLS1-associated protein X-1 (O00165-2, form named): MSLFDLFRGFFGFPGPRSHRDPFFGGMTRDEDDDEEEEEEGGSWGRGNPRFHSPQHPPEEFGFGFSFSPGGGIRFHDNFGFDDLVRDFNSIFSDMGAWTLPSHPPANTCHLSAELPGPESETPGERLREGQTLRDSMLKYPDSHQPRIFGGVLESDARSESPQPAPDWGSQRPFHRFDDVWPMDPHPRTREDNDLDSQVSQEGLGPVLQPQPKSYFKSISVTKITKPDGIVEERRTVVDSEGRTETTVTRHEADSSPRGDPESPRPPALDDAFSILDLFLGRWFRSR

In test [2] the target is T2, FLAG-TRIM14 ectopically expressed in H1395 cells (human) (UniProt Q14142).
T2 sequence: T1 sequence
In words: co-IP; H1395 cells with ectopically expressed FLAG-TRIM14; endogenous p62 detected by blot.

Results are given in words; binding and its absence hold for the method and conditions named. Binding seen in cells or lysates may run through a third protein. Some binding calls cover weakened binding; strength is not graded here. Where a sequence is shown, tags or fusion partners need not be part of it.

With “Isoform 2 of HCLS1-associated protein X-1 (from UniProt O00165-2 1-287)”, the binding entry in test [1] is reported as “binds”.

Regarding “Sequestosome-1 p62 (from UniProt Q13501 1-440)”, in test [1], the binding entry is given as “binds”.

On to “endogenous p62 of H1395 cells (from UniProt Q13501 1-440)”, for which the binding entry in test [2] is “binds”.
